Patent US12351590B2, “Pyrrolopyrimidine compound and use thereof” (GUANGZHOU JOYO PHARMATECH CO., LTD., priority 2019, dated 2025)

Assay: in vitro
Details: human, Caco-2, pH 7.4
Experimental: The transport buffer solution was HBSS (Hanks' balanced salt solution) and 10 mM HEPES [N-(2-hydroxyethyl)piperazine-N′-(2-ethanesulfonic acid)], pH 7.40±0.05; Caco-2 cells were purchased from ATCC.
Caco-2 cells were seeded at 1×10^5 cells/cm^2 in polyethylene terephthalate (PET) 96-well BD insert plates, and the medium was refreshed every 4-5 days until day 21-28 to form a confluent monolayer. Test compounds were tested in a two-way format at 2 μM in duplicate. Digoxin was added at 10 μM in the two-way format, and nadolol and metoprolol were added at 2 μM in the two-way format. Final DMSO concentration was adjusted to less than 1%. The plates were incubated in a CO2 incubator at 37±1° C. for 2 h and at 5% CO2 and saturated humidity without shaking. All samples were mixed with acetonitrile containing an internal standard, centrifuged at 4000 rpm for 10 min. 100 microliters of supernatant was diluted with 100 microliters of distilled water for LC/MS/MS analysis. […] After the transport test, the integrity of the Caco-2 cell monolayer was determined by fluorescein yellow exclusion reaction, and the apparent permeability coefficient and efflux ratio were calculated.

In the case of `C[C@H]1O[C@@H](O[C@H]2[C@@H](O)C[C@H](O[C@H]3[C@@H](O)C[C@H](O[C@H]4CC[C@@]5(C)[C@H](CC[C@@H]6[C@@H]5C[C@@H](O)[C@]5(C)[C@@H](C7=CC(=O)OC7)CC[C@]65O)C4)O[C@@H]3C)O[C@@H]2C)C[C@H](O)[C@@H]1O` [Digoxin, reference compound], the Papp B→A at 2 h, 10 μM was 13.9 ×10⁻⁶ cm/s and the efflux ratio at 2 h, 10 μM was 349.
